# Reference: patent publication US20260184748A1 (The Trustees of the University of Pennsylvania, priority 2022, published 2026)
# For some assays here: HELM strings list residues between dots; [ac] is acetyl, [am] amide, other brackets name non-standard units. Where no end group is shown, it is not given here.
# Tests used:
# peptide synthesis [1] = details: whole synthesis, acetate salt (ODN and TDN, rather than TFA salt)
# peptide synthesis [2] = details: whole synthesis, MALDI-ToF MS and RP-HPLC (Zorbax analytical C18 column), acetate salt (ODN and TDN, rather than TFA salt)
Substance,final HPLC purity (peptide synthesis [1]),final HPLC purity (peptide synthesis [2])
Arg-Pro-Gly-Leu-Leu,95% pure,–
RPGLLDLK,96.4% pure,–
PEPTIDE1{R.P.G.L.[dL].D.L.K.[am]}$$$$V2.0,–,96% pure
PEPTIDE1{Q.A.T.V.G.D.V.N.T.D.R.P.G.L.L.D.L.K.[am]}$$$$V2.0,–,100% pure
PEPTIDE1{D.V.N.T.D.R.P.G.L.L.D.L.K.[am]}$$$$V2.0,–,100% pure
